Test results taken from patent US6730503B1 (Roche Vitamins Inc., priority 1996, dated 2004).
Some entries share one result that the patent states for a list of compounds. Some ranges recur; such a range may be that of the whole group of compounds.

B1: Enzyme A′: recombinant AADH of G. oxydans DSM No. 4025, amino acid sequence SEQ ID NO 6, plasmid p1E2 (protein)
chain: MKTSSLLVASVAALASYSSFALAQVTPVTDELLANPPAGEWISYGQNQENYRHSPLTQITTENVGQLQLVWARGMQPGKVQVTPLIHDGVMYLANPGDVIQAIDAKTGDLIWEHRRQLPNIATLNSFGEPTRGMALYGTNVYFVSWDNHLVALDTATGQVTFDVDRGQGEDMVSNSSGPIVANGVIVAGSTCQYSPFGCFVSGHDSATGEELWRNYFIPRAGEEGDETWGNDYEARWMTGVWGQITYDPVGGLVHYGSSAVGPASETQRGTTGGTMYGTNTRFAVRPETGEIVWRHQTLPRDNWDQECTFEMMVANVDVQPAADMDGVRSINPNAATGERRVLTGVPCKTGTMWQFDAETGEFLWARDTSYENIIESIDENGIVTVDESKVLTELDTPYDVCPLLLGGRDWPSAALNPDTGIYFIPLNNTCMDIEAVDQEFSSLDVYNQSLTAKMAPGKELVGRIDAIDISTGRTLWTAEREASNYAPVLSTAGGVLFNGGTDRYFRALSQETGETLWQTRLATVASGQAVSYEIDGVQYIAIGGGGTTYGSFHNRPLAEPVDSTAIGNAMYVFALPQQ
modifications: Gluconobacter oxydans; SIGNAL (1)..(23)
B2: Enzyme A″: recombinant AADH of G. oxydans DSM No. 4025, amino acid sequence SEQ ID NO 7, plasmid p26C3 (protein)
chain: MKLTTLLQSSAALLVLGTIPALAQTAITDEMLANPPAGEWINYGQNQENYRHSPLTQITADNVGQLQLVWARGMEAGKIQVTPLVHDGVMYLANPGDVIQAIDAATGDLIWEHRRQLPNIATLNSFGEPTRGMALYGTNVYFVSWDNHLVALDTSTGQVVFDVDRGQGTDMVSNSSGPIVANGVIVAGSTCQYSPFGCFVSGHDSATGEELWRNTFIPRAGEEGDETWGNDYEARWMTGVWGQITYDPVGGLVHYGTSAVGPAAEIQRGTVGGSMYGTNTRFAVRPETGEIVWRHQTLPRDNWDQECTFEMMVVNVDVQPSAEMEGLHAINPDAATGERRVVTGVPCKNGTMWQFDAETGEFLWARDTSYQNLIESVDPDGLVHVNEDLVVTELEVAYEICPTFLGGRDWPSAALNPDTGIYFIPLNNACSGMTAVDQEFSSLDVYNVSLDYKLSPGSENMGRIDAIDISTGRTLWSAERYASNYAPVLSTGGGVLFNGGTDRYFRALSQETGETLWQTRLATVASGQAISYEIDGVQYVAIGRGGTSYGSNHNRALTERIDSTAIGSAIYVFALPQQ
modifications: Gluconobacter oxydans; SIGNAL (1)..(23)
B3: Enzyme B: recombinant AADH of G. oxydans DSM No. 4025, amino acid sequence SEQ ID NO 8, plasmid pSS31/pSSB103R (protein)
chain: MNPTTLLRTSAAVLLLTAPAAFAQVTPITDELLANPPAGEWINYGRNQENYRHSPLTQITADNVGQLQLVWARGMEAGAVQVTPMIHDGVMYLANPGDVIQALDAQTGDLIWEHRRQLPAVATLNAQGDRKRGVALYGTSLYFSSWDNHLIALDMETGQVVFDVERGSGEDGLTSNTTGPIVANGVIVAGSTCQYSPYGCFISGHDSATGEELWRNHFIPQPGEEGDETWGNDFEARWMTGVWGQITYDPVTNLVFYGSTGVGPASETQRGTPGGTLYGTNTRFAVRPDTGEIVWRHQTLPRDNWDQECTFEMMVANVDVQPSAEMEGLRAINPNAATGERRVLTGAPCKTGTMWSFDAASGEFLWARDTNYTNMIASIDETGLVTVNEDAVLKELDVEYDVCPTFLGGRDWSSAALNPDTGIYFLPLNNACYDIMAVDQEFSALDVYNTSATAKLAPGFENMGRIDAIDISTGRTLWSAERPAANYSPVLSTAGGVVFNGGTDRYFRALSQETGETLWQARLATVATGQAISYELDGVQYIAIGAGGLTYGTQLNAPLAEAIDSTSVGNAIYVFALPQ
modifications: Gluconobacter oxydans; SIGNAL (1)..(23)

Test: Thermal stability, 5 minutes, residual activity by PMS-DCIP assay
Format: physicochemical
Conditions: 40° C. for 5 min
Method: Table 4 indicates the results of thermal-stabilities of the enzymes. The enzyme (about 0.05 mg/ml) in 25 mM HEPES buffer, pH 7.5, containing 5% sucrose, 0.2 M NaCl, and 5 mM CaCl2 was incubated at temperature indicated in the table (4-60° C.) for 5 minutes, cooled in ice bath and assayed by PMS-DCIP spectrophotometric method. Remaining activity was expressed as relative activity against that obtained by 4° C. incubation.

| Molecule | Residual activity |
| --- | --- |
| B1 | 70-85% |
| B2 | 70-85% |
| B3 | 70-85% |
